Hit rate of the full screen: of about 320,000 compounds, about 2,100 (0.66%) were called active. This list was built around the results that the source calls inconclusive (neither active nor inactive); the mix of calls is not that of the screen. Calls come from the whole dose curve; as a rule, active = well fitted inhibition curve with a large enough effect in the signal ratio, with a control signal flat (not every such curve was filed as active); inconclusive = small, poorly fitted or top-dose-only effect, or effect the other way, or a change in a side signal; inactive = flat fitted curve, though single readings scatter; the % refers to the signal ratio. A potency beside an inconclusive call is a rough fit, not a confirmed value.
Test: qHTS Assay for Lipid Storage Modulators in Drosophila S3 Cells
Conditions: BODIPY lipid droplet fluorescence, 18-24 h, cells fed with added oleic acid; lipid storage change, negative = inhibition: at 46.1 µM (top of the series) unless noted
Summary of the method: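 Laser-scanning cytometry quantifies lipid droplet accumulation (500–530 nm total intensity; droplet/cell object ratio) in oleic acid-fed (400 uM added) Drosophila S3 cells treated with a concentration series. 20 uM Triacsin C defined 100% inhibition.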
% is set by controls: 0 for no effect and ±100 for the full control effect; potency is the fitted concentration of half-maximal effect.

| SMILES | lipid storage change, negative = inhibition | Potency |
| --- | --- | --- |
| Cn1c(=O)n(-c2ccccc2)c(=O)c2c3c(sc21)COC(C)(C)C3 | inconclusive: 17.2% | – |
| CS(=O)(=O)N(CC(=O)N1CCOCC1)c1cccc(Cl)c1Cl | inconclusive: 20.6% | – |
| COc1ccc2cc1Oc1ccc(cc1)CC1c3c(cc(OC)c4c3Oc3cc5c(cc3O4)CCNC5C2)CCN1C (configuration not stated) | inconclusive: -65.2% | – |
| CC1(C)C(=O)N(CCN2CCC(C(=O)c3ccc(F)cc3)CC2)c2ccccc21 | inconclusive: 19.6% | – |
| CCOC(=O)CSc1nnc(-c2ccco2)n1C | inconclusive: -6.82% | – |
| CCN(Cc1ccccc1)S(=O)(=O)c1ccc(C(=O)N(CCCN(C)C)c2nc3ccc(F)cc3s2)cc1 | inconclusive: -13.7% | – |
| COc1cc2cccc(OC)c(=O)c2c(O)c1OC | inconclusive: 56.4% | – |
| Cc1nn(C2CCCO2)c(=O)nc1N (configuration not stated) | inconclusive: -28.7% | – |
| CCN(CC(=O)Nc1c(F)cccc1F)C(=O)CCCOc1ccc(OC)cc1 | – | inconclusive: 29.1 µM [falling, single point] |
| CCc1ccc(NC(=O)c2ccc3c(=O)n4c(nc3c2)CCCCC4)cc1 | – | inconclusive: 0.13 µM [activator, full curve, poor fit] |
| Cc1nc2ccccn2c1C(=O)NNS(=O)(=O)c1ccc(C(C)(C)C)cc1 | – | inconclusive: 23.1 µM [cytotoxic, partial curve] |
| COc1ccccc1NC(=O)CSc1nc(=O)n2cc(C)ccc2n1 | inconclusive | – |
| CCOc1ccc(S(=O)(=O)N(CC)CC)cc1NC(=O)CSCc1c(C)noc1C | – | inconclusive: 29.1 µM [activator, single point] |
| CCCCNC(=O)COC(=O)c1ccc(N(C)C)cc1 | inconclusive: 15.8% | – |
| COc1cc(OC)cc(C(=O)N2CCN(c3ccccn3)CC2)c1 | inconclusive: 0.816% | – |
| N#CC1(c2ccc(NC(=O)c3ccccc3)cc2)CCCC1 | inconclusive: 5.09% | – |
| CCN(CC)c1ccc(NC(=O)CCc2nnc3ccc(N4CCCCC4)nn23)c(C)c1 | – | inconclusive: 13 µM [falling, partial curve] |
| CCCCCC(=O)NNC(=S)NC(=O)c1ccc([N+](=O)[O-])cc1 | inconclusive: -14.4% | – |
| CC(=O)C1=C(C)Nc2ncnn2C1c1ccc(O)cc1 (configuration not stated) | inconclusive: 22.6% | – |
| O=C(O)c1ccccc1C(=O)NNc1ccc(F)cc1F | inconclusive: 29.6% | – |
| COc1ccc(C(=O)Nc2ccncc2)cc1[N+](=O)[O-] | inconclusive: 48.5% | – |
| O=C(COc1ccc(-n2cnnn2)cc1)Nc1ccccc1Cl | – | inconclusive: 0.0046 µM [falling, full curve, poor fit] |
| Nc1nc(CN2CCN(c3cccc(Cl)c3)CC2)nc(N2CCCc3ccccc32)n1 | inconclusive: 22.2% | – |
| CCOc1ccc(CNC(=O)C2CCN(C(=O)N3CC(C)Oc4ccccc43)CC2)cc1 (configuration not stated) | inconclusive: -22.9% | – |
| COc1cc2nc(/C=C/c3ccc(N(C)C)cc3)sc2cc1SC | – | inconclusive: 23.1 µM [falling, single point] |
| COC(=O)COc1ccc(C2NC(=O)NC(c3ccccc3)=C2C(C)=O)cc1OC (configuration not stated) | – | inconclusive: 0.82 µM [falling, full curve, poor fit] |

Full records from above. Values in the order: lipid storage change, negative = inhibition | Potency
Cc1nn(C2CCCO2)c(=O)nc1N (configuration not stated) reads inconclusive: -28.7% | –
COc1cc(OC)cc(C(=O)N2CCN(c3ccccn3)CC2)c1 reads inconclusive: 0.816% | –
Cc1nc2ccccn2c1C(=O)NNS(=O)(=O)c1ccc(C(C)(C)C)cc1 reads – | inconclusive: 23.1 µM [cytotoxic, partial curve]
COc1cc2cccc(OC)c(=O)c2c(O)c1OC reads inconclusive: 56.4% | –

(further entries)

| SMILES | lipid storage change, negative = inhibition | Potency |
| --- | --- | --- |
| COC(=O)C(C(=O)OC)=C(/C=C/C=C/N(C)C)N(C)C | – | inconclusive: 0.184 µM [falling, full curve, poor fit] |
| CCCn1c(SCC(=O)Nc2nc3ccccc3s2)nc2c1c(=O)n(C)c(=O)n2C | – | inconclusive: 0.517 µM [activator, full curve] |
| Cc1cc(C)c(O)c(C2(O)C(=O)c3ccccc3C2=O)c1 | – | inconclusive: 0.259 µM [falling, full curve, poor fit] |
| CC(C)(Cc1ccccc1)/[N+]([O-])=C\c1ccccc1 | – | inconclusive: 4.61 µM [activator, single point] |
| CC(C)c1ccc(NC(=O)CC2Oc3ccccc3NC2=O)cc1 (configuration not stated) | inconclusive: -15.8% | – |
| CCCCc1ccc(NC(=O)C2CCN(S(C)(=O)=O)CC2)cc1 | – | inconclusive: 25.9 µM [activator, single point] |
| O=C(Cn1c(=O)sc2ccccc21)Nc1ccc2c(c1)OCCO2 | inconclusive: 20.1% | – |
| CC(C)Oc1ccc(CN2CCCC(CO)(Cc3ccc(F)cc3)C2)cc1 (configuration not stated) | – | inconclusive: 3.66 µM [falling, full curve] |
| Cc1cc(C)cc(N2C(=O)CC(n3nc(C)cc3C)C2=O)c1 (configuration not stated) | inconclusive: -0.531% | – |
| CCN1CCN(S(=O)(=O)c2ccc(Cl)c(C(=O)Nc3cc(Cl)ccc3N3CCOCC3)c2)CC1 | inconclusive: -50.1% | – |
| Cn1cc(C(=O)N2CCCCC2)c(=O)c2cc(S(=O)(=O)N3CCCC3)ccc21 | inconclusive: 1.91% | – |
| COc1ccc(C2CC3(CC(C)(C)NC(SC)=N3)Oc3cc(O)cc(C)c32)cc1 (configuration not stated) | – | active: 23.1 µM |
| Cc1cc(NN)nc(NS(=O)(=O)c2ccccc2Cl)n1 | inconclusive: 26.6% | – |
| CCOC(=O)CC1C(=O)NCCN1C(=O)c1cccc(OC)c1 (configuration not stated) | inconclusive: -0.0012% | – |
| COc1cc(C(=O)Nc2c(C(=O)O)[nH]c3ccc(C)cc23)cc(OC)c1OC | inconclusive: 5.66% | – |
| COC(=O)C(NC(=O)c1ccco1)(Nc1nc(C)cs1)C(F)(F)F (configuration not stated) | inconclusive: 14.9% | – |
| Cc1ccc(S(=O)(=O)N2CCN(C(=O)CN3C(=O)c4ccc([N+](=O)[O-])cc4C3=O)CC2)cc1C | inconclusive: 3.54% | – |
| C=CCc1cc(C)ccc1OCCOCCC(C(=O)OCC)C(=O)OCC | inconclusive: 23% | – |
| Cc1cc(NC(=O)c2cc3ncc(Br)cn3n2)no1 | inconclusive: -4.12% | – |
| CC1(C)CC(=O)CC2(C1)NCC(c1ccccc1Cl)c1c2[nH]c2ccccc12 (configuration not stated) | inconclusive: -11.5% | – |
| O=C1NC(=O)c2cc(NC(=O)C3CCCO3)ccc21 (configuration not stated) | inconclusive: -40.7% | – |
| O=C(COc1ccc(F)c(Cl)c1)N1CCN(c2ccccn2)CC1 | inconclusive: 0.359% | – |
| N#Cc1ncc(C(F)(F)F)cc1Sc1ccc(N)cc1 | – | inconclusive: 1.64 µM [rising, partial curve] |
| Cc1ccc2c(c1)[C@@H]1CN(C)CC[C@@H]1N2S(=O)(=O)c1ccc(F)cc1 | inconclusive: -22% | – |
| CCOC(=O)c1c(N2C(=O)C=CC2=O)sc(C)c1C | – | inconclusive: 29.1 µM [falling, single point] |
| N/C(=N\OC(=O)C1CCCCC1)c1cccc([N+](=O)[O-])c1 | inconclusive: 2.06% | – |

Compounds shown so far that have a cyano group, in the order listed:

| SMILES | lipid storage change, negative = inhibition | Potency |
| --- | --- | --- |
| N#CC1(c2ccc(NC(=O)c3ccccc3)cc2)CCCC1 | inconclusive: 5.09% | – |
| N#Cc1ncc(C(F)(F)F)cc1Sc1ccc(N)cc1 | – | inconclusive: 1.64 µM [rising, partial curve] |

The list goes on.

| SMILES | lipid storage change, negative = inhibition | Potency |
| --- | --- | --- |
| C[C@H](NC(=O)c1ccccc1Cl)C(=O)OCC(=O)N1CCN(c2ccccc2)CC1 | inconclusive: 7.71% | – |
| CC(=O)Nc1ccc(S(=O)(=O)NCCC(=O)OC(C)C(=O)NC2(C#N)CCCCC2)cc1 (configuration not stated) | inconclusive: 8.3% | – |
| Cc1cccc(C(C)C)c1NC(=O)C(C)OC(=O)Cc1n[nH]c(=O)c2ccccc12 (configuration not stated) | – | inconclusive: 29.1 µM [rising, single point] |
| COc1ccc(O)c(C(=O)c2cnc3c(c2)c(=O)[nH]c(=O)n3C)c1 | inconclusive: 55% | – |
| CCOC(=O)c1cc(C)[nH]c1C | inconclusive: 2.13% | – |
| O=C(O)c1ccccc1S(=O)(=O)c1ccccc1CO | inconclusive: -4.01% | – |
| O=C(/C=C/c1ccc(F)cc1)N1CCN(S(=O)(=O)/C=C/c2ccccc2)CC1 | inconclusive: 24.5% | – |
| CCc1nnc(NS(=O)(=O)c2ccc(NCc3ccccc3O)cc2)s1 | – | inconclusive: 1.46 µM [activator, partial curve] |
| Cc1cccc(OCCC(=O)Nc2ccc(Cl)cc2F)c1 | – | inconclusive: 8.2 µM [activator, partial curve] |
| Cc1ccc(NC(=S)/N=C(\N)Nc2nc(C)c3ccccc3n2)cc1C | inconclusive: 12.8% | – |
| O=C(CNC(=O)c1ccccc1F)NCCOc1cccc(Cl)c1Cl | inconclusive: 43.9% | – |
| O=C(NC(=S)Nc1ccccc1C(=O)O)c1ccc(-c2ccc(Br)cc2)o1 | inconclusive: 14.2% | – |
| Cc1cc(NS(=O)(=O)c2ccc(NC(=O)c3ccc(Br)o3)cc2)nc(C)n1 | inconclusive: 10.2% | – |
| CCN(CC)S(=O)(=O)N1CCC(C(=O)NCCN2CCOCC2)CC1 | – | inconclusive: 3.66 µM [falling, single point] |
| COc1cc(CCCN2C(=S)NC[C@H]2Cc2ccc(O)cc2)cc(OC)c1OC | inconclusive: -22.3% | – |
| COc1ccc(Cl)cc1C(=O)Nn1c(C)nc2ccccc2c1=O | inconclusive: 15.4% | – |
| O=C(CN1CCN(C2CCCCC2)CC1)Nc1ccccc1N1CCCCC1 | inconclusive: 27.5% | – |
| O=C(CCC(=O)c1cccs1)OCc1ccc([N+](=O)[O-])cc1 | inconclusive: -31.7% | – |
| O=C(Nc1ccc2c(c1)OCCO2)C1CCC1 | inconclusive: -57.9% | – |
| CCc1cc(=O)oc2c(C)c(OCC(=O)N3CC[C@@]4(O)CCCC[C@H]4C3)ccc12 | inactive: -24.5% | – |
| Cc1ccc2c(CN3CCC(C)CC3)cc(=O)oc2c1 | – | inconclusive: 0.231 µM [activator, full curve, poor fit] |
| Brc1ccc(-c2nnc3ccc(N4CCN(c5ccccc5)CC4)nn23)cc1 | inconclusive: -4.42% | – |
| NS(=O)(=O)c1ccc(S(=O)(=O)N2CCN(C3CCCC3)CC2)cc1 | – | inconclusive: 2.31 µM [activator, single point] |
| Cc1nc(NC(=O)c2ccccc2)sc1-c1csc(Nc2ccc(Cl)cc2)n1 | inconclusive: -3.75% | – |
| CC(C)c1ccc(-n2cccc2/C=C2/C(=N)N3C=CSC3=NC2=O)cc1 | inconclusive: 24.3% | – |

— PubChem BioAssay AID2685 (National Center for Advancing Translational Sciences (NCATS), 2010)
